# The list shows a part of the results.
# Tested on: T1, CTL2-GFP (C. trachomatis L2/434/Bu, GFP-expressing)
# T1 construct: L2/434/Bu, GFP-expressing
# Parameters: species or system HeLa; Intracellular C. trachomatis growth in HeLa cells, bulk GFP fluorescence relative to DMSO
# Settings: bulk GFP, single well; 28.5 h, 10 µM; inhibitor
row,Structure (SMILES),% of control remaining [%]
1,CC(=O)C(C)Oc1ccccc1-n1cccc1 (centres unmarked) [CBK020334],119.276
2,COC(=O)c1ccc(NC(=O)CSc2nnc(-c3ccncc3)s2)cc1 [CBK269239],96.8076
3,COc1nccnc1OC1CCN(Cc2ccc(C(F)(F)F)cc2)CC1 [CBK084243],165.155
4,CC(C)OC(=O)N1CCC(N(C)Cc2ccc(-c3ccc(S(C)(=O)=O)cc3)cn2)CC1 [CBK165581T],91.9463
5,CC(=O)Nc1cccc(-n2nnnc2SCC2CCCCO2)c1 (centres unmarked) [CBK305746],128.911
6,O=c1[nH]nc(-c2cccs2)n1-c1ccncc1 [CBK283868],112.581
7,CC(C)N(CC(N)=O)Cc1nc(-c2cccc(C(F)(F)F)c2)no1 [CBK306287],141.671
8,COc1cc(C=CC(=O)O)ccc1OCc1cn2cc(Cl)ccc2n1 [CBK296722],137.001
9,COc1ccccc1NC(=O)COc1cccc(Cl)c1Cl [CBK266029],163.605
10,Clc1cccc(-c2cccc(Nc3cccnc3)n2)c1Cl [CBK037800],98.7111
11,O=S1(=O)C=C(SCCN2CCCCC2)c2ccccc21 [CBK265328],100
12,O=C(NC1CC1)[C@H]1CN(Cc2ccccc2)C[C@@H]1C(=O)c1ccccc1 [CBK285264],93.3627
13,Cc1ncccc1COC(=O)Nc1cccnc1 [CBK138237],168.203
14,CC(C)CN1C(=S)N(Cc2ccc(-c3ccccn3)cc2)[C@H]2[C@H]3OC(=O)[C@H](C[C@H]3O)[C@H]21 [CBK288938],95.7126
15,COCC(=O)Nc1nc(OC)cnc1/C=C\c1ccccc1 [CBK145360],110.777
16,CC1CCC(C(N)=O)CN1C(=O)c1ccc(Oc2cccc(Br)c2)nc1 (centres unmarked) [CBK306005],107.554
17,Cc1nc(CN2CCCC(NCc3cccc4ccccc34)C2)no1 (centres unmarked) [CBK304068],142.164
18,OC[C@H]1CCN(Cc2cc(Cl)ccc2OCCCn2ccnc2)C[C@H]1O [CBK306581],142.516
19,CCn1cc(C(=O)O)c(=O)c2cc(F)c(N(C)CCc3ccc(OC)c(OC)c3)cc21 [CBK263070],98.6502
20,NC1=NC(=O)C2(COC(c3cccnc3)OC2)S1 (centres unmarked) [CBK019981],112.599
21,Cc1c(N2C(=O)/C(=C3\C(=O)Nc4ccc([N+](=O)[O-])cc43)SC2=S)c(=O)n(-c2ccccc2)n1C [CBK263071],78.5678
22,O=C(CCn1c(-c2ccncc2)cc2cccnc21)N1CCCC1 [CBK282151],167.845
23,O=C1NCCN(C(=O)c2[nH]nc3c2CCCCC3)C1Cc1ccccc1-c1ccc(F)cc1 (centres unmarked) [CBK285831],122.34
24,CN(C)CCCOc1nccnc1N1CCCC1 [CBK113427],121.348
25,O=C(Nc1ccccc1C(=O)N1CCCC1)c1cc(=O)[nH]c2ccccc12 [CBK295664],141.255

row,Structure (SMILES),% of control remaining [%]
1,CCN(CC)C(=O)c1ccccc1NS(=O)(=O)c1cc(Br)c(Cl)s1 [CBK045424],81.2448
2,COc1ccc2c(-n3cncn3)ccnc2c1 [CBK025957],163.625
3,CN(C)c1ccc(CC(=O)N2CCCc3ccccc32)cc1 [CBK200347],165.877
4,Cc1ccc(-c2ncc(OC3CCN(C)CC3)nc2N)c(C)c1 [CBK145139],103.966
5,CCCc1[nH]nc(O)c1-c1ccc(OC)cc1 [CBK075135],123.832
6,C=CCn1c(-c2sc(NC(=O)c3cc4ccccc4s3)nc2C)n[nH]c1=S [CBK295303],133.115
7,O=C1COc2ccc(S(=O)(=O)NCCOc3ccccc3)cc2N1 [CBK268480],121.618
8,Cn1cc(CNCC2CCN(c3ccccc3)C2)c(-c2ccncc2)n1 (centres unmarked) [CBK306317],100.725
9,COC(=O)CC[C@H]1CNC(=O)[C@@H]2[C@@H](CCN2S(C)(=O)=O)N1C [CBK289019],111.115
10,Cc1ccccc1CN1CC[C@H]2[C@@H](C1)[C@H](c1ccsc1)CN2C(=O)c1ccccc1 [CBK285618],102.732
11,COc1ccccc1CNc1nccc(-n2ccc(C)n2)n1 [CBK288611],103.871
12,C(=C\c1nccnc1OC(c1ccccc1)c1ccccc1)/c1ccccc1 [CBK106878],133.401
13,O=C(O)CCC(=O)Nc1ccccc1C(=O)Nc1ccccc1 [CBK058571],114.753
14,O=C1N=C(NC2CCCCCC2)SC1CC(=O)N1CCCC1 (centres unmarked) [CBK063342],92.2054
15,Cc1ccnc(NCC2CCN(c3ccc4nnnn4n3)C2)c1 (centres unmarked) [CBK306348],138.403
16,Cc1cccc(C)c1NC(=O)CN1CCCN(c2nccc(OCC3COc4ccccc4O3)n2)CC1 (centres unmarked) [CBK083974],174.455
17,CSCCC(=O)Nc1ccc2ncccc2c1 [CBK159818],105.463
18,COc1ccc(CN2C(=S)N(c3ccc(Cl)cc3)[C@H]3[C@@H]2[C@H]2OC(=O)[C@@H]3C[C@H]2O)cc1 [CBK288935],110.384
19,Cc1sc2nc(C(C)N3CCN(Cc4ccco4)CC3)[nH]c(=O)c2c1C (centres unmarked) [CBK306066],116.359
20,c1ccc2c(c1)NC(c1ccncc1)n1nnnc1-2 (centres unmarked) [CBK288171],120.685
21,CCc1c(C)nc2ccccc2c1SCCOC(=O)Nc1ccc(OC)cc1 [CBK155554T],103.279
22,O=C1c2cccc3cccc(c23)C(=O)N1CCN1CCN(S(=O)(=O)c2ccccc2[N+](=O)[O-])CC1 [CBK262530],95.9936
23,COc1ccc(NC(=O)CC2NC3CCCCC3NC2=O)cc1 (centres unmarked) [CBK266488],112.138
24,CCCCN(C(C)=O)c1c(CC)nc2ccc(C(=O)NCc3ccccc3OC)cn12 [CBK145761],105.875
25,CCCNC(=O)c1ccc(C)c(NC(=O)N[C@@H](CO)c2ccccc2)c1 [CBK306609],103.539

# Copied from the list:
# % of control remaining [%] with `Cn1cc(CNCC2CCN(c3ccccc3)C2)c(-c2ccncc2)n1` (centres unmarked) [CBK306317] reads 100.725
# % of control remaining [%] with `Cc1ccnc(NCC2CCN(c3ccc4nnnn4n3)C2)c1` (centres unmarked) [CBK306348] reads 138.403
